From PubChem BioAssay AID1347423 (Functional Genomics Laboratory (NCATS/FGL), 2020) come the findings set out here.

Screen size: about 52,000 sequences; about 210 (0.4%) were called active.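 Rule for the calls: active = gene whose silencing raises cell survival under the drug, median off-target-corrected z-score across its silencing RNAs 2 or more; inactive = the rest.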 This is one part of the list.

The nature of the assay: Resistance to Poly (ADP-Ribose) Polymerase inhibitor: Gene Identification via Genome-wide siRNA Screen. The note with it: mouse BRCA2 R2336H ES cells, olaparib, CellTiter-Glo viability; hits give high values. The procedure, abridged: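 Genome-wide siRNA screen (3 siRNAs/gene, 20 nM) in mouse ES cells carrying hypomorphic BRCA2 R2336H; olaparib 500 nM added 48 h post-transfection, CellTiter-Glo viability 72 h later. Normalized to plate-median negative control; MAD z-scores, gene median, seed-adjusted.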
With GGGCAAGGGUCUCAAACUATT against Rangap1, the z-score is inactive: -1.5.
The figure for CGGUACUAAACAUUACCUCTT against Olfr633 is inactive: 0.294; for GGUCUCCUCCAAGAUGAUGTT against Mettl3 it is inactive: 0.651; for GGAACAAGUGGCUGAAGAUTT against Cyp11b2 it is inactive: -2.33.
As for CCAUAAACGACGAAAUGAUTT against Usp11, the z-score is active: 2.97.
Turning to GGAGAAACUGAAACAAGCUTT against Gpc4, the z-score is inactive: 1.03.
Next, GCUGGUAUGACCAAGAGAATT against Mutyh: inactive: -1.23; GGGUGUCAUAUGCAAAUUATT against Scube1: inactive: -1.07; GCGUGUUGAAUUGAGGAAGTT against Galnt11: inactive: 1.48.
Regarding CCUUUGUGGCAGUCUUUCATT against Vpreb3, the z-score was inactive: -0.616.
Consider “GGGAGAGACAUAUAUCCUGTT against A930034L06Rik”, for which the z-score is inactive: 0.171.
For CCUGGAGAUCCCUCACUUUTT against Olfr1351, the z-score was inactive: -0.159.
Turning to CGGCAGUGUUAAAACAUGATT against Fgfr2, the z-score was inactive: 0.114.
Take GGCAUGAACCAAGAUGCUGTT against Nr2e3: the z-score was inactive: 1.93.
For “GGACAUUACACUGUUCAAATT against 6430546I09”, the z-score is inactive: 0.291.
The figure for GGCUGUAGUGAAGGUGUACTT against Adprtl3 is inactive: 1.62; for GGAAAUAGAUUUUCAGCUCTT against Dnase2b it is inactive: -0.117; for “GCCUCACGGUUAGUUGGGATT against 3110062M04Rik” it is inactive: -0.887.
Take GCUCAUGCAUGAGAAUGCCTT against Ifi30: the z-score is inactive: -0.033.
Take CCUGGAUCUACUUUUCAGUTT against Mrgprd: the z-score is inactive: -0.168.
With GGGACUUAGAAACAAUCCATT against Hsd3b4, the z-score is inactive: 2.07.
Consider “GGUGAUCAUAUAAGUUAGUTT against 9130416N05Rik”, for which the z-score is inactive: 0.54.
“GCUCAUCAAAACACUGACCTT against B130016L12Rik”: the z-score is inactive: -2.85.
Consider “GGCAUUAUCGUGGUUGGCATT against 2310079N02Rik”, for which the z-score is inactive: -1.21.
For “GCUGGUAUUGGCGAAUGGUTT against 4930506D23Rik”, the z-score was inactive: -3.07.
As to “CCAGACUAUUGACUUUCUGTT against 2700063A19Rik”, the z-score is inactive: 0.33.
Turning to GGAUGACUCUAUCUUUCUATT against Igfbp4, the z-score is inactive: 0.102.
The figure for GGACGAUCUCUACAUAGAUTT against Mrps28 is inactive: -0.0314; for “CCCUAACUCAGACUCCAUGTT against C530028O21Rik” it is inactive: -0.793; for “GCAUUGGGUAUAAAGUAAGTT against 4931440L10Rik” it is inactive: 0.404.
The figure for GGAUGUUGGUCUCACAUCGTT against Bmpr2 is inactive: 0.655.
In the case of “CCCAUGUAAGGAUGUGUCGTT against A930004K21Rik”, the z-score was inactive: -0.605.
As to “GCAACCUGUAUGCUUUUGUTT against 1110064L07Rik”, the z-score is inactive: 0.0915.
In the case of GAAAAAUACCCUGGCACUGTT against Olfr823, the z-score was inactive: 0.311.
As for CGGAUAUUAUUGUUUGGAATT against Nalp9a, the z-score is inactive: -0.209.
Turning to CCGAAUCUGUCGUAUCACUTT against Dvl2, the z-score was inactive: 1.5.
Regarding GGUCUCUUUCAACAAAAAUTT against Sec22l2, the z-score was inactive: 0.0105.
The figure for “CGUAUUAGUAAUAAGGGCATT against 3110050N22Rik” is inactive: 0.444.
With “GGGCUGAAGUGAAACCAGATT against D930048N14Rik”, the z-score was inactive: -2.49.
Next, “GCCAAAGAGCAUAUCGAUUTT against 4921517N04Rik”: inactive: -0.398.
Next, GGUUAUGAAGGUGUAUACUTT against Notch1: inactive: -0.525; GGAGUGAGAUUGUUAACAUTT against Ank1: inactive: -0.634; GGUUGCGAUGAGGAGACUATT against Olfr1318: inactive: -2.27.
Take “GGAUUUCAACAUGCCUCUGTT against 1110001A05Rik”: the z-score is inactive: -0.102.
In the case of “GGUGUGUGGCCAGAAAGUUTT against 2310047I15Rik”, the z-score was inactive: -2.
In the case of CCAGUAUUCCUGAAAAUGATT against Tfg, the z-score was inactive: -1.93.
In the case of GGUAAUGUUAGCAGAACAATT against Ifih1, the z-score was inactive: -1.25.
Take GGUCGUCCAGCUGAAGAACTT against Nrbf1: the z-score was inactive: -0.263.
As to GGAAUCUGAAGGAGAUGCATT against Prss7, the z-score was inactive: -0.352.
Take GGAGUGGCCAUUAAAUUUATT against Slc17a8: the z-score is inactive: 0.232.
The figure for GGAAAAACUGGUCUAUCAATT against Polr3f is inactive: -2.5; for “CCUAUCAUUCUCAAAGGGATT against 1110067I12Rik” it is inactive: -0.411; for UUCUAAUUGUCACUUGGUGTT against Olfr1474 it is inactive: 0.103.
Take GGAGAUGGAAUGAAGUAUUTT against Fbxl21: the z-score is inactive: -0.49.
Next, “CCCUGUUAUUAUCUUGAUUTT against 1110067L22Rik”: inactive: -0.515; GGAGGACAGGAAAACAGAATT against H2-Ke6: inactive: 0.303; “GGAAACCAUCUUUGAACUUTT against 4932439K10Rik”: inactive: 1.5.
As to GCUACCAAAGGAAUUUUGATT against Cul4a, the z-score was inactive: -0.739.
Consider CCGACACCUGUCAAUUCUGTT against Tcof1, for which the z-score is inactive: -1.55.
Next, GCAGUAUGGGACUAUGCUUTT against Cp: inactive: 2.32; CCAAUAAGAAUUCAGAUCGTT against Ufd1l: inactive: 0.934; “GGCAGAAAUACAAUCUUCGTT against D17Ertd488e”: inactive: -0.627.
The figure for “GGUAAAAGAUGAGAAAAACTT against 2810052M02Rik” is inactive: 0.201.
For GGUGGAAUUCUCUUCAACUTT against Mbtps1, the z-score is inactive: -0.497.
On to GGAUGAAAUCGAUUGUCUCTT against Ppgb, for which the z-score is inactive: 0.669.
With GGCACAGAAUAUCCACCACTT against Olfr283, the z-score was inactive: -1.16.
Turning to “CCGACUACAGCAUGUAUAUTT against 9230102I19Rik”, the z-score was inactive: -0.69.
As for “GGAAAUAAACAAGUCCCACTT against 2900073H19Rik”, the z-score is inactive: 0.14.
As for GGAACUAGCCUUCACUGACTT against Rabggta, the z-score is inactive: -0.909.
Consider GGGCUCCUAUUGGACAAUUTT against Foxj2, for which the z-score was inactive: -1.55.
Turning to CCGUAGCGAGACUUACAUCTT against Accn3, the z-score is inactive: -0.146.
In the case of GGAGGAAAAGGCAAUCGUUTT against Gtpbp5, the z-score was inactive: -1.12.
Regarding GUACUGCCCGUCCACUUUUTT against Insm2, the z-score was inactive: -1.72.
For the sequence GGGACAAAAUUAUUCCUCCTT against Crsp2, the z-score was inactive: -1.28.
For GGAUGAGAGGUAAAGUAACTT against Nptxr, the z-score is inactive: -0.395.
As to CCAGAGGUUCACAAAACGATT against Anapc5, the z-score was inactive: -2.8.
Turning to GGAGUUGUGGGAAGAAGAATT against Paip2, the z-score is inactive: -1.66.
For the sequence GGAUCAGUGGUAUUGGUUCTT against Krtcap1, the z-score is inactive: -0.882.
In the case of GGACUCCGUCAUAUACGAATT against Olfr1102, the z-score is inactive: 0.557.
Regarding GCCUGGACACCAUACCAAUTT against Plxdc2, the z-score is inactive: -0.485.
For the sequence UCCAGCUGGCGAAGUGGGCTT against LOC328779, the z-score was inactive: 0.928.
As to GCUGUUGUUUACUUGGCAATT against V1rh21, the z-score was inactive: -0.442.
Consider GCCAAAAGUCGAGCACCUCTT against Lrrc5, for which the z-score was inactive: -0.0025.
As for CGCUCUCAAGGUAUAGUCCTT against Cyp2d22, the z-score was inactive: -0.0194.
The figure for GGAGUUUUAACAACAGUAGTT against AI586120 is inactive: -2.34.
On to “GGUGGCUACCUGGUGAUCUTT against 8430417A20Rik”, for which the z-score is inactive: 0.676.
As for CGUUUGACACUUUUGCCUUTT against Mid1, the z-score is inactive: -1.4.
“GGACACAGUAGAGCGGAUUTT against 4631403P03Rik”: the z-score was inactive: 3.03.
As for GGGUGGAAGAGUUCAGUUUTT against Zadh1, the z-score was inactive: 0.507.
Next, GCUGAAUACAACGUGAGAUTT against Tdh: inactive: -0.744; GGGUUGUUGAGACUUCCACTT against Hmbs: inactive: 0.438; GCCCAUAGGUGCAGAUUCCTT against Fhl4: inactive: 1.03.
For GGACAAGAACUACAUUGAGTT against Eefsec, the z-score was inactive: 2.12.
GGUAUCAUUUACUUUGAACTT against Gtf2f2: the z-score is inactive: 0.527.
Turning to GGAGUUCUUUUUUUCUGUGTT against Pkd1, the z-score was inactive: -0.637.
Regarding GGACCAGAAGGAGAAGAGUTT against Prg2, the z-score is inactive: -2.64.
Regarding GAAUGGAAGACGAAAUUUGTT against Ctla2a, the z-score is inactive: 0.826.
GGCCUUACCAAAUGGAAGUTT against Ifih1: the z-score was inactive: 0.142.
Turning to CCUACCUUCAUUCGCUUCGTT against Cpz, the z-score is inactive: 1.77.
Next, CGAUGAAGCCAAUCACUUATT against Cct5: inactive: -2.57; GGGAACCCAUUUUAGAAUUTT against Repin1: inactive: 0.468; “GGUCAACCCAGCCUAUUCATT against 0610039G24Rik”: inactive: -1.21.
Turning to GGAACUUUAUGUGGAAAGATT against V1rf2, the z-score is inactive: -0.552.
